Experimental data published in patent US20060178415A1, “Azole derivatives as antifungal agents” (priority 2002, published 2006).
For at least one compound, name, drawing or mass did not settle the structure.

Test system: A. fum.
Assay: In vitro antifungal MIC, NCCLS M38P broth method in RPMI 1640/MOPS pH 7
Assay type: cell-based, Aspergillus fumigatus
Conditions: A. fumigatus strain 1008
From the text: The in vitro evaluation of the antifungal activity of the compound of this invention (as shown in Table I) can be performed by determining the minimum inhibitory concentration (MIC) which is the concentration of the test compound in Rosewell Park Memorial Institute (RPMI) 1640 liquid medium buffered with 3-(Morpholino)propane sulfonic acid (MOPS) to pH 7, at which there is significant inhibition of the particular fungi. In practice the National Committee for Clinical Laboratory Standard (NCCLS) M27A document for Candida and Cryptococcus and M38P for Aspergillus was used to determine the MIC and readings recorded only when the Quality Control results fell into the acceptable range. After MIC results had been recorded, 100 μL from each of the well showing no growth was spread over Sabouraud Dextrose Agar (SDA) to determine the minimum fungicidal concentration (MFC).

COC(=O)Cn1cnn([C@H](C)[C@](O)(Cn2cncn2)c2ccc(F)cc2F)c1=S [Compound No. 48, Methyl-2-[[(1R,2R)-2-(2,4-difluorophenyl)-2-hydroxy-1-methyl-3-(1H-1,2,4-triazol-1-yl)propyl]-(2H,4H)-1,2,4-triazol-3-thion-4-yl]acetate]
MIC (A. fum.) 1008: PS-VE
